No constants are given. Whether binding was seen depends on the method and setting. Some results given as binding are weak or reduced against the parent protein; the word gives no strength.
Biological target: recombinant vault particles based on expression of the MVP protein alone (UniProt Q62667)
Assay: INT packaged into purified vaults used in the liposome assay

By UniProt entry, the sequences of proteins in these tests, tags left out.
UniProt Q62667: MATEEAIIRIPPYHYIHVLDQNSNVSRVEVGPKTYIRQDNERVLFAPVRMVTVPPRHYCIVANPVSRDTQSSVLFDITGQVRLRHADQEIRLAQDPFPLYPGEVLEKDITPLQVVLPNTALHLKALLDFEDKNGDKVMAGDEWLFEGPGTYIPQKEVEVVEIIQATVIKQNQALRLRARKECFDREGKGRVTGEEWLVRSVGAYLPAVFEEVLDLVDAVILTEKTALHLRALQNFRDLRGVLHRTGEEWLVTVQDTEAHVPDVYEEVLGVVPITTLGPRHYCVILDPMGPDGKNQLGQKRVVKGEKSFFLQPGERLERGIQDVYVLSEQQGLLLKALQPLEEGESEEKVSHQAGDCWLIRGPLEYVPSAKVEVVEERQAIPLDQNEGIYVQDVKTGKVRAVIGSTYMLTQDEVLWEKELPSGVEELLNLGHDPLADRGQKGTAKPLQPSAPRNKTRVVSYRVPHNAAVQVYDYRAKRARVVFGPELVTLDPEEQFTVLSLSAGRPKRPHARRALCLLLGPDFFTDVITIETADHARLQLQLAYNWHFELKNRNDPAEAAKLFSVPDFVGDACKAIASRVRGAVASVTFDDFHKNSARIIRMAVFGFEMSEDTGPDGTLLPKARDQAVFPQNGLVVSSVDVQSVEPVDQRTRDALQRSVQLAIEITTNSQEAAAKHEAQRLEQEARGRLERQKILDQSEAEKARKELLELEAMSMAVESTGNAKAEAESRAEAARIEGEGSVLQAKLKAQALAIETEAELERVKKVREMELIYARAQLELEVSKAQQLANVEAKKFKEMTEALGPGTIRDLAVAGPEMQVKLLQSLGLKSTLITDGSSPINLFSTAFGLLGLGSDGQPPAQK

B1: INT domain of VPARP (amino acids 1563-1724), recombinant protein (protein, not shown: small tags and cut ends)
chain: CTQHWQDAVPWTELLSLQTEDGFWKLTPELGLILNLNTNGLHSFLKQKGIQSLGVKGRECLLDLIATMLVLQFIRTRLEKEGIVFKSLMKMDDPSISRNIPWAFEAIKQASEWVRRTEGQYPSICPRLELGNDWDSATKQLLGLQPISTVSPLHRVLHYSQG
  binding: binds

Source: US20160068576A1
